Counter-ions that a name gives are not always drawn. ± gives the standard deviation of the averaged measurements. The list shows a part of the results. Repeats in this data set agree poorly, so a single value says little.
system: A549; test: surface PD-L1 immunofluorescence intensity relative to IFN-gamma-only control (ratio); higher = more PD-L1 expression; conditions: 10 µM; exposure time 24 h; IFN-gamma 100 ng/mL

Structure (SMILES)	surface PD-L1 immunofluorescence intensity
CCN1CCC[C@H]1CNC(=O)c1c(O)c(Cl)cc(Cl)c1OC [Raclopride]	0.952 ± 0.066
NC(N)=NCCC[C@H](NC(=O)[C@@H]1CCCN1C(=O)[C@H](N)Cc1ccccc1)C(=O)CCl	1.04
CN(C(=O)c1c(O)c2ccccc2n(C)c1=O)c1ccccc1 [Linomide]	0.99
CC(C)Cc1ccc(C(C)C(=O)O)cc1 (centres undefined) [Ibuprofen Lysine (NeoProfen)]	1.09
COc1ccc(C(=O)c2ccccc2O)c(O)c1 [Dioxybenzone]	0.998
CC(C)(C)NC[C@H](O)COc1ccccc1C1CCCC1 [Penbutolol sulfate]	1.01
Nc1nc2[nH]cc(CCc3ccc(C(=O)N[C@@H](CCC(=O)O)C(=O)O)cc3)c2c(=O)[nH]1 [Pemetrexed (Alimta)]	0.939
COc1ccc2cccc(N3CCN(CCNC(=O)c4ccc(F)cc4)CC3)c2c1	0.971
O=C(O)[C@H]1/C(=C/CO)O[C@@H]2CC(=O)N21 [Clavulanate potassium salt]	0.947
O=C(OCCOCCO)c1ccccc1Nc1cccc(C(F)(F)F)c1 [Etofenamate]	1.09
CC(=O)Oc1ccccc1C(=O)Oc1cccc(CO[N+](=O)[O-])c1	1.08
Cc1cnc(C(=O)O)c[n+]1[O-] [Acipimox]	1.05
O=c1c(O)c(-c2ccc(O)c(O)c2)oc2cc(O)cc(O)c12 [Quercetin]	1.04 ± 0.092
O=c1c(O)c(-c2ccc(O)c(O)c2)oc2cc(O)cc(O)c12 [Quercetin (Sophoretin)]	0.967
O=C(O)C1(C(=O)O)CCC1.[NH2-].[NH2-].[Pt+2] [Carboplatin]	1
O=C1c2ccccc2S(=O)(=O)N1CCCCN1CCN(c2ncccn2)CC1 [Ipsapirone]	0.9884 ± 0.0014
Cn1c([N+](=O)[O-])cnc1COC(N)=O [Ronidazole]	0.985
CN(C)[C@@H]1C(O)=C(C(N)=O)C(=O)[C@@]2(O)C(O)=C3C(=O)c4c(O)ccc(Cl)c4[C@@H](O)[C@H]3C[C@@H]12 [Demeclocycline hydrochloride]	1.04
O=C(O)CCC/C=C\C[C@@H]1CO[C@H](C(F)(F)F)O[C@@H]1c1ccccc1O	0.883
CC[C@@H]1/C=C(\C)C[C@H](C)C[C@H](OC)[C@H]2O[C@@](O)(C(=O)C(=O)N3CCCC[C@H]3C(=O)O[C@H](/C(C)=C/[C@@H]3CC[C@H](Cl)[C@H](OC)C3)[C@H](C)[C@@H](O)CC1=O)[C@H](C)C[C@@H]2OC [Pimecrolimus]	1.14
CC(Oc1ccccc1)C(=O)N[C@@H]1C(=O)N2[C@@H]1SC(C)(C)[C@@H]2C(=O)O (some centres undefined) [Phenethicillin potassium salt]	1.06
O=C(O)c1cc(O)c2ccc(Cl)cc2n1 [7-Chlorokynurenic acid]	1.09
COc1ccc(C(=O)NCc2ccc(OCCN(C)C)cc2)cc1OC [Itopride]	0.966
N[C@@H](C(=O)N[C@@H]1C(=O)N2C(C(=O)O)=C(Cl)CS[C@H]12)c1ccccc1 [Cefaclor hydrate]	1
OC[C@H]1NC[C@@H](O)[C@@H](O)[C@@H]1O [1-Deoxymannojirimycin hydrochloride]	0.992

Structure (SMILES)	surface PD-L1 immunofluorescence intensity
CCCc1nc(C(C)(C)O)c(C(=O)O)n1Cc1ccc(-c2ccccc2-c2nnn[nH]2)cc1 [Olmesartan]	1.13
N=C(N)N/N=C/c1c(Cl)cccc1Cl [Guanabenz acetate]	1.06
N[C@H](C(=O)O)[C@H](OCc1ccccc1)C(=O)O (racemic)	0.94
CC(C)(C)c1cc(O)ccc1O [tert-Butylhydroquinone]	0.945
CN(C)CCOC(=O)COc1ccc(Cl)cc1 [Meclofenoxate hydrochloride]	1.06
Brc1c(NC2=NCCN2)ccc2nccnc12	1.01
Brc1c(NC2=NCCN2)ccc2nccnc12 [UK 14,304 tartrate]	0.974
CCC(=O)NC[C@H](Cc1ccc(OCCc2nc(-c3ccccc3)oc2C)cc1)N/C(C)=C\C(=O)c1ccc(C(F)(F)F)cc1	1.24
Nc1cc(-c2ccncc2)c[nH]c1=O [Amrinone]	0.949
CCOC(=O)c1c(C)n(C)c2ccc(O)cc12 [Mecarbinate]	1.07
COc1ccc(C[C@@H]2c3cc(OC)c(OC)cc3CC[N@+]2(C)CCC(=O)OCCCCCOC(=O)CC[N@@+]2(C)CCc3cc(OC)c(OC)cc3[C@H]2Cc2ccc(OC)c(OC)c2)cc1OC [Cisatracurium besylate (Nimbex)]	1.16
CC(N)C12CC3CC(CC(C3)C1)C2 (centres undefined) [Rimantadine Hydrochloride]	1.13
CN(CCOc1ccc(CC2SC(=O)NC2=O)cc1)c1ccccn1 (centres undefined) [Rosiglitazone maleate]	0.98
CN(CCOc1ccc(CC2SC(=O)NC2=O)cc1)c1ccccn1 (centres undefined) [Rosiglitazone Hydrochloride]	1.07
CCC(=O)OCC(=O)[C@@]1(OC(=O)CC)[C@H](C)C[C@H]2[C@H]3[C@H]([C@@H](O)C[C@@]21C)[C@@]1(C)C=CC(=O)C=C1C[C@H]3Cl [Alclometasone dipropionate]	0.803
c1ccc2nc(C3=NCCN3)cnc2c1 [BU 239 hydrochloride]	1.12
Cc1cc(-n2c(=O)[nH]c(=O)n(C)c2=O)ccc1Oc1ccc(SC(F)(F)F)cc1 [Toltrazuril]	1.07
CC(C)CCC[C@@H](C)[C@H]1CC[C@H]2[C@@H]3C(=O)C=C4C[C@@H](O)CC[C@]4(C)[C@H]3CC[C@]12C [7-Ketocholesterol]	0.951
Cc1ccccc1N1C(=O)c2cc(S(N)(=O)=O)c(Cl)cc2NC1C (centres undefined) [Metolazone]	0.903
COc1c(OCCCN2CCOCC2)ccc2c1N=C(NC(=O)c1cnc(N)nc1)N1CCN=C21	0.902
O=C1N(c2ccccc2)c2ccccc2C1(Cc1ccncc1)Cc1ccncc1 [Linopirdine dihydrochloride]	0.91
OCCOCCN1CCN(C(c2ccccc2)c2ccc(Cl)cc2)CC1 (centres undefined) [Hydroxyzine dihydrochloride]	0.928
COc1ccc(CNC(=O)Nc2ncc([N+](=O)[O-])s2)cc1	1.12 ± 0.097
C=CC1=C(C(=O)O)N2C(=O)[C@@H](NC(=O)/C(=N\OCC(=O)O)c3csc(N)n3)[C@H]2SC1 [Cefixime]	1
Nc1cccc2c1CN(C1CCC(=O)NC1=O)C2=O (centres undefined) [Lenalidomide (Revlimid)]	1.07

Structure (SMILES)	surface PD-L1 immunofluorescence intensity
CC(=O)Nc1ccc(O)cc1 [Acetaminophen]	1.08
O=C(Nc1ccc(-c2ccnc(Nc3ccc(N4CCOCC4)cc3)n2)cc1)C1CCCN1 (centres undefined)	0.906
COc1nc(-c2ccc3c(c2)OCO3)n(-c2ccc(NC(=O)CSc3ccccc3)cc2)n1 [SecinH3]	0.987
COc1ccc2[nH]c([S+]([O-])Cc3ncc(C)c(OC)c3C)nc2c1 (centres undefined) [Omeprazole]	1.042 ± 0.0053
CO/N=C(\C(=O)N[C@@H]1C(=O)N2C(C(=O)O)=C(C[N+]3(C)CCCC3)CS[C@H]12)c1csc(N)n1 [Cefepime hydrochloride]	0.96
CCOC(=O)[C@H](CCc1ccccc1)N[C@@H](C)C(=O)N1CCC[C@H]1C(=O)O [Enalapril maleate]	0.973
O=C1CC2(CCCC2)CC(=O)N1CCNCC1COc2ccccc2O1 (centres undefined)	0.978
C[C@]12CC[C@@H]3c4ccc(O)cc4CC[C@H]3[C@@H]1C[C@@H](O)[C@@H]2O [Estriol]	0.942 ± 0.14
CN(C)CCCO[C@@H]1[C@H]2OC(C)(C)O[C@H]2O[C@@H]1[C@H](O)CO [Amiprilose hydrochloride]	0.921
CCC[C@H](NC(=O)[C@@H]1[C@H]2CCC[C@H]2CN1C(=O)[C@@H](NC(=O)[C@@H](NC(=O)c1cnccn1)C1CCCCC1)C(C)(C)C)C(=O)C(=O)NC1CC1 [Telaprevir (VX-950)]	1.07
Cc1noc(NS(=O)(=O)c2ccc(N)cc2)c1C [Sulfisoxazole]	1.11 ± 0.082
CCc1cccc2c3c([nH]c12)C(CC)(CC(=O)O)OCC3 (centres undefined) [Etodolac (Lodine)]	0.983
CC[N+](CC)(CC)CCC(O)(c1ccccc1)C1CCCCC1 (centres undefined) [Tridihexethyl chloride]	1.03
C[C@@H]1CN(CC(=O)Nc2ccc3c(c2)Cc2cccc(-c4cc(=O)cc(N5CCOCC5)o4)c2S3)C[C@H](C)O1	0.965
C=CC(=O)N1CCC[C@@H](n2nc(-c3ccc(Oc4ccccc4)cc3)c3c(N)ncnc32)C1	1.12 ± 0.11
C=CC(=O)Nc1ccc2ncnc(Nc3ccc(OCc4cccc(F)c4)c(Cl)c3)c2c1	1.03
CC1=C(CC(=O)O)c2cc(F)ccc2/C1=C\c1ccc([S+](C)[O-])cc1 (centres undefined) [Sulindac]	0.992 ± 0.089
CC(Oc1c(Cl)cccc1Cl)C1=NCCN1 (centres undefined) [Lofexidine]	0.936
Cn1c(=O)cc(N2CCC[C@@H](N)C2)n(Cc2ccccc2C#N)c1=O [Alogliptin (SYR-322)]	0.954
CCCCCCCN(CC)CCCC(O)c1ccc(NS(C)(=O)=O)cc1 (centres undefined) [Ibutilide fumarate]	0.997
Cc1nnc(C(C)C)n1C1C[C@H]2CC[C@@H](C1)N2CC[C@H](NC(=O)C1CCC(F)(F)CC1)c1ccccc1 (stereo in doubt) [Maraviroc]	1.06
COc1ccc(-c2cc(=O)c3c(O)cc(O[C@@H]4O[C@H](CO[C@@H]5O[C@@H](C)[C@H](O)[C@@H](O)[C@H]5O)[C@@H](O)[C@H](O)[C@H]4O)cc3o2)cc1O [Diosmin]	1.01 ± 0.11
CS(=O)(=O)CCNCc1nc(-c2ccc3ncnc(Nc4ccc(OCc5cccc(F)c5)c(Cl)c4)c3c2)cs1	1.05
CC1CS(=O)(=O)CCN1/N=C/c1ccc([N+](=O)[O-])o1 (centres undefined) [Nifurtimox]	0.953
